In publication PMC5996148:
Some of the results follow. For some assays here: The exact form of the protein is not confirmed.

How the values were obtained:
Experiment in all cases: protein microarray (ProtoArray v5.0), streptavidin-Alexa Fluor 647
Conditions in all cases: 3'-biotin; 20 mM Tris (pH 7.5), 5 mM MgCl2, 100 mM KCl, 0.1% Tween-20, A/T-rich and random oligonucleotide blockers; temperature not stated; high values mean tight binding
[1] = system: Bardet-Biedl syndrome 10 protein (human)
[2] = system: Beta-2-microglobulin (human)
[3] = system: Bifunctional protein NCOAT (human)
[4] = system: Biogenesis of lysosome-related organelles complex 1 subunit 1 (human)
[5] = system: Branched-chain-amino-acid aminotransferase, mitochondrial (human)
[6] = system: Breast carcinoma-amplified sequence 4 (human)
[7] = system: Butyrophilin subfamily 2 member A2 (human)
[8] = system: C-C motif chemokine 20 (human)
[9] = system: C-C motif chemokine 4 (human)
[10] = system: C-Maf-inducing protein (human)
[11] = system: C-terminal-binding protein 1 (human)
[12] = system: C-type lectin domain family 12 member A (human)
[13] = system: C-type lectin domain family 2 member D (human)
C10orf35 (human) = system: C10orf35 (human)
C10orf46 (human) = system: C10orf46 (human)
C10orf58 = target: T1, C10orf58 (UniProt Q9BRX8)
T1 sequence: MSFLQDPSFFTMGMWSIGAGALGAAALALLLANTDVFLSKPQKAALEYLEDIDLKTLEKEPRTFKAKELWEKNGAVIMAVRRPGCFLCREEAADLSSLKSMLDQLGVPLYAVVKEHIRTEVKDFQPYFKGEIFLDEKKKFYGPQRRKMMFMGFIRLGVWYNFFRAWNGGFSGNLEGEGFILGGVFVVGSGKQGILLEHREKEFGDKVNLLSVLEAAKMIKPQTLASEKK

C11orf51 (human) = system: C11orf51 (human)
C11orf52 = target: T2, C11orf52 (UniProt Q96A22)
T2 sequence: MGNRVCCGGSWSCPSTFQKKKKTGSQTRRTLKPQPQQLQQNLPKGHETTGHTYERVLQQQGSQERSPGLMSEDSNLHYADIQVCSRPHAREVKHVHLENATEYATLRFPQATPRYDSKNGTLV

C11orf53 (human) = system: C11orf53 (human)
C11orf70 (human) = system: C11orf70 (human)

With “GGTGACAGGGGTATGGGGAGGGG [G4-2 biotinylated (Ct1)]” as the sequence, how does the binding signal [1] read?
Its binding signal is -0.358 z-score.

What about the binding signal [2] of the same sequence?
Its binding signal is -0.383 z-score.

And the binding signal [3]?
Its binding signal is -0.395 z-score.

What about the binding signal [4] of the same sequence?
The binding signal was -0.367 z-score.

And the binding signal [5]?
Its binding signal is -0.399 z-score.

And the binding signal [6]?
Its binding signal is -0.392 z-score.

What about the binding signal [7] of the same sequence?
Its binding signal is -0.391 z-score.

And the binding signal [8]?
The binding signal was -0.377 z-score.

And the binding signal [9]?
Its binding signal is -0.387 z-score.

And the binding signal [10]?
The binding signal was -0.392 z-score.

What about the binding signal [11] of the same sequence?
The binding signal was -0.403 z-score.

What about the binding signal [12] of the same sequence?
Its binding signal is -0.392 z-score.

And the binding signal [13]?
Its binding signal is -0.376 z-score.

And the binding signal (C10orf35 (human))?
Its binding signal is -0.377 z-score.

And the binding signal (C10orf46 (human))?
The binding signal was -0.379 z-score.

What about the binding signal (C10orf58) of the same sequence?
The binding signal was -0.374 z-score.

What about the binding signal (C11orf51 (human)) of the same sequence?
The binding signal was -0.393 z-score.

And the binding signal (C11orf52)?
Its binding signal is 6 z-score.

And the binding signal (C11orf53 (human))?
Its binding signal is -0.386 z-score.

And the binding signal (C11orf70 (human))?
Its binding signal is -0.365 z-score.
